For at least one compound, name, drawing or mass did not settle the structure.
Columns and labels:
Format in all cases: cell-based
[1] = system: Bacillus stearothermophilus var. calidolactis spores C953; assay: Test type C: microtiterplates with agar medium containing trimethoprim, milk sample; settings: milk with 3 ppb, 64° C.
Description: For the preparation of the test plates (test type C) the procedure described in Example I was followed except that the nutrients described in Example III (dextrose, tryptose and yeast extract) were not added separately but were added to the initial agar medium in the same concentration as described in Example I. Also together with the buffer solution an amount of trimethoprim solution was added to give a final concentration of 60 μg per litre. To the wells of sterile microtiterplates 20 μl of the agar solution was added under asceptic conditions. The plates were immediately sealed with aluminium foil. The plates were stored at a temperature between 5° C. and 15° C. An amount of penicillin G of 3 ppb was added to fresh cow's milk. […] The control sample contained no penicillin G or sulphadiazine. The microtiterplates were opened by removing the seal. Then 20 μl of each of the three milk samples was added to each of the test plates (duplo) containing different concentrations of Bacillus stearothermophilus var. calidolactis spores […]. The plates were immediately placed in a waterbath kept at 64° C. Observations were made after 30 minutes to 150 minutes. The time at which the colour of the agar medium became yellow was determined. As is shown in table 2, the test duration correlated with the amount of spores added to the agar medium without influencing the sensitivity of the test in a negative way.

[2] = system: Bacillus stearothermophilus var. calidolactis C953 spores; assay: Test type B: agar test tubes with Brilliant Black and Toluidine Blue, milk sample; settings: milk with 0.003 IU/ml, 64° C.
Description: Test tubes of type B contained an agar medium prepared as follows: A solution was made of 10 g agar, 9 g sodium chloride, 2 g glucose, 2 g peptone, 2 g tryptone, 4 g yeast extract and 50 ml of a 0.1 M triethanolamine buffer solution (pH=8.0) in 1000 ml distilled water. The final solution was sterilized for 20 minutes at 121° C. and cooled to about 60° C. An amount of a solution of Brilliant Black to give a final concentration of 80 mg per 1000 ml and an amount of a solution of Toluidine Blue to give a final concentration of 3 mg per 1000 ml were also added. To this solution different amounts of a suspension of Bacillus stearothermophilus var. caildolactis C953 spores In distilled water were added to give final concentrations between 10^8 and 10^10 spores per ml. Sterile tubes with a diameter of about 9 mm were filled with 0.3 ml of the agar solution under aseptic conditions and Immediately sealed e.g. with an aluminum foil. The agar solution In the test tubes was allowed to solidity in the test tubes while the test tubes were held in an upright position. The tubes were stored at a temperature between 5° C. and 15° C. An amount of penicillin G of 0.003 I.U. per ml was added to fresh cow's milk. The control sample contained no penicillin G. Two of each of the test tubes of type B with concentrations of Bacillus stearothermophilus var. calidolactis spores as described in Example II were opened by removing the seal. Then 0.1 ml of each of the two milk samples was added to each of the test tubes and the test tubes were immediately placed in a waterbath kept at 64° C. Observations were made after 30 minutes to 3 hours. The time at which the colour of the agar medium became yellow was determined. As is shown in Table 1, the test duration correlated with the amount of spores added to the agar medium without influencing the sensitivity of the test in a negative way.

[3] = system: Streptococcus thermophilus T101 (DSM 4022); assay: Test type D: detection of antibiotics in milk without agar, bromocresolpurple; settings: milk with 4 ppb, 42° C.
Description: In this experiment Streptococcus thermophilus […] (DSM 4022) was sed for the determination of antibiotics in milk. Streptococcus thermophilus […] was grown using methods known per se. An amount of a solution of bromocresolpurple to give a final concentration of […] was added to fresh cow's milk. To part of the fresh cow's milk also an amount of penicillin G of 4 ppb added. The control sample contained no penicillin G. To the milk samples different amounts of Streptococcus thermophilus […] were added to give final concentrations between 10^7 and 10^9 CFU per ml. Immediately after preparation of the samples sterile tubes with a diameter of about 9 mm were filled with 0.3 ml of each milk sample (duplo). The tubes were immediately placed in a waterbath kept at 42° C. Observations were made after 30 minutes to 2 hours and 30 minutes. The time at which the colour of the agar medium became yellow was determined. As is shown in table 3, the test duration correlated with the amount of cells added to the milk without influencing the sensitivity of the test in a negative way.

CC1(C)S[C@@H]2[C@H](NC(=O)Cc3ccccc3)C(=O)N2[C@H]1C(=O)O [penicillin G]
+: Sensitivity of test type C at different spore concentrations ([1]; test duration 80 minutes, 2.0 × 10^8 spores/ml medium) | Sensitivity of test type C at different spore concentrations ([1]; test duration 90 minutes, 1.0 × 10^8 spores/ml medium) | Sensitivity of test type C at different spore concentrations ([1]; test duration 105 minutes, 5.1 × 10^7 spores/ml medium) | Sensitivity of test type C at different spore concentrations ([1]; test duration 123 minutes, 2.5 × 10^7 spores/ml medium) | Sensitivity of test type C at different spore concentrations ([1]; test duration 140 minutes, 1.3 × 10^7 spores/ml medium) | Sensitivity of test type B at different spore concentrations ([2]; test duration 70 minutes, 1.3 × 10^5 spores/ml medium) | Sensitivity of test type B at different spore concentrations ([2]; test duration 100 minutes, 6.5 × 10^7 spores/ml medium) | Sensitivity of test type B at different spore concentrations ([2]; test duration 110 minutes, 4.9 × 10^7 spores/ml medium) | Sensitivity of test type B at different spore concentrations ([2]; test duration 120 minutes, 3.3 × 10^7 spores/ml medium) | Sensitivity of test type B at different spore concentrations ([2]; test duration 130 minutes, 2.6 × 10^7 spores/ml medium) | Sensitivity of test type B at different spore concentrations ([2]; test duration 140 minutes, 2.0 × 10^7 spores/ml medium) | Sensitivity of test type B at different spore concentrations ([2]; test duration 155 minutes, 1.3 × 10^7 spores/ml medium) | Sensitivity of test type B at different spore concentrations ([2]; test duration 180 minutes, 6.5 × 10^6 spores/ml medium) | Sensitivity of test type D at different cell concentrations ([3]; test duration 80 minutes, 2.5 × 10^8 cells/ml medium) | Sensitivity of test type D at different cell concentrations ([3]; test duration 103 minutes, 1.3 × 10^8 cells/ml medium) | Sensitivity of test type D at different cell concentrations ([3]; test duration 125 minutes, 6.0 × 10^7 cells/ml medium) | Sensitivity of test type D at different cell concentrations ([3]; test duration 145 minutes, 3.0 × 10^7 cells/ml medium)
